For some assays here: A negative result means that nothing was seen under these conditions. For some assays here: Tags and fusion partners may be left off the protein sequences shown. For some assays here: Where cells or extracts were used, other partners may take part. For some assays here: The exact form of at least one protein or probe is not confirmed.
Experiments:
[1] = system: AK101356 B3-domain fragment, MBP fusion (Oryza sativa); assay: EMSA; conditions: no specific binding; purified recombinant protein; protein details: MBP (pMAL-c2); label: labeled (EMSA probe)
[2] = biological target: T1, OsVP1 GAL4 AD fusion (Oryza sativa) (UniProt P37398); assay: one hybrid; conditions: protein in cells, protein details: GAL4 AD (pGAD424)
T1 sequence (looked up, limits assumed): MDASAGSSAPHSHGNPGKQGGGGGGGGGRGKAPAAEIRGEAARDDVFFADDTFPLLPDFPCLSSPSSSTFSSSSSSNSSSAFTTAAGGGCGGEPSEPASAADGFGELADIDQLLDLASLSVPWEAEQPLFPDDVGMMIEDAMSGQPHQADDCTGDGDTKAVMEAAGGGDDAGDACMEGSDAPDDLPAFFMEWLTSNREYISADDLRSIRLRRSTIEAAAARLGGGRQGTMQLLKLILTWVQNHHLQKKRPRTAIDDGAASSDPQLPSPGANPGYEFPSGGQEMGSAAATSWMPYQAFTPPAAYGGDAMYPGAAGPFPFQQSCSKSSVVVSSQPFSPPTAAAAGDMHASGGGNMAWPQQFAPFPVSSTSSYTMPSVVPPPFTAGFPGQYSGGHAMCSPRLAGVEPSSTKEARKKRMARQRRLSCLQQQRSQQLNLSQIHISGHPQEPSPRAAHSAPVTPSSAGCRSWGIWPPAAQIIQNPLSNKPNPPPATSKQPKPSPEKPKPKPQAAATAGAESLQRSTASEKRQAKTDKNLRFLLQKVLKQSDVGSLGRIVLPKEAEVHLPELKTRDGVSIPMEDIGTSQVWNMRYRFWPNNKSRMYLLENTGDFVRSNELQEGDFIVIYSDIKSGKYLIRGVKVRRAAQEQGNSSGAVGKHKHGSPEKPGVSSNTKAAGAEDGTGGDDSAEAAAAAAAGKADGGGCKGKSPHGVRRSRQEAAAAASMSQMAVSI

Chains of the proteins cited; added tags and fusions are not shown. A line that says so, or that is headed by a name, gives the form on record, which may keep a tag or linker.
HvIDEF2 (barley library one-hybrid clone) (Hordeum vulgare), one chain, as listed by the source: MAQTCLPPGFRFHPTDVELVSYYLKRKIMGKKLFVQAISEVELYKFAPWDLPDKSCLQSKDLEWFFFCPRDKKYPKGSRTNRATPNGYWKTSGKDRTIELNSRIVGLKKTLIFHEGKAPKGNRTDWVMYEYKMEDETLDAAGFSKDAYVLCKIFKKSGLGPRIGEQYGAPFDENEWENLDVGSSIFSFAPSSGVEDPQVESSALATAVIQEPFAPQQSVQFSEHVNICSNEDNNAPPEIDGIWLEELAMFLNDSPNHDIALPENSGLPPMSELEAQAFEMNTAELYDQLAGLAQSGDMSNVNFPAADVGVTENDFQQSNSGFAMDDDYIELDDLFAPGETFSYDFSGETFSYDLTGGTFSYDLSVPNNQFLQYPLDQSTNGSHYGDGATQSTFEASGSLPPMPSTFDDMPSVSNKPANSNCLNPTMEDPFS
AK101356 GAL4 AD fusion (Oryza sativa), one chain, as listed by the source: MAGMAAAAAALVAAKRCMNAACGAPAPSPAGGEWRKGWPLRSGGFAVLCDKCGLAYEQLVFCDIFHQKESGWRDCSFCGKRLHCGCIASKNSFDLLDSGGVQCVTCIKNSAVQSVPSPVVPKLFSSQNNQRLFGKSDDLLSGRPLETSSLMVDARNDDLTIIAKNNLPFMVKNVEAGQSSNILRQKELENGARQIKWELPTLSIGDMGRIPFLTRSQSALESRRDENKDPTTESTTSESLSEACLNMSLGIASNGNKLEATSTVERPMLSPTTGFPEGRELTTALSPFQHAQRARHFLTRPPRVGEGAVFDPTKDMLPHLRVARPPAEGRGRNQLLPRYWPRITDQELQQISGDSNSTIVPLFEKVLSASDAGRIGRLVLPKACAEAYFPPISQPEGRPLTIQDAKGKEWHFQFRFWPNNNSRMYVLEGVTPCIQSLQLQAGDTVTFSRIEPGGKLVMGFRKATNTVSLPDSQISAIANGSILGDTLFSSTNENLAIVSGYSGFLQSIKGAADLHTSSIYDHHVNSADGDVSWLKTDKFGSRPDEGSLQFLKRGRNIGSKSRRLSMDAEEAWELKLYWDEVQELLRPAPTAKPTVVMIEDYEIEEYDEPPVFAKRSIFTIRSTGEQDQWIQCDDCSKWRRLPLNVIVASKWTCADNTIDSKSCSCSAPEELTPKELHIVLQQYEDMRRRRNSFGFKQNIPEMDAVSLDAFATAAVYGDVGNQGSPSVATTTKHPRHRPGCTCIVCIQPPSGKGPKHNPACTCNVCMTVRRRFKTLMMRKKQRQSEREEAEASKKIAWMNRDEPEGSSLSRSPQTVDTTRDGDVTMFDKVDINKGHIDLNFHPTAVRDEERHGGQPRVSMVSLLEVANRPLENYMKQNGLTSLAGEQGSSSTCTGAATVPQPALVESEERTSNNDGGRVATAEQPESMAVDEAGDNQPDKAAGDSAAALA
AK101356 B3-domain fragment, MBP fusion (Oryza sativa), one chain, as listed by the source: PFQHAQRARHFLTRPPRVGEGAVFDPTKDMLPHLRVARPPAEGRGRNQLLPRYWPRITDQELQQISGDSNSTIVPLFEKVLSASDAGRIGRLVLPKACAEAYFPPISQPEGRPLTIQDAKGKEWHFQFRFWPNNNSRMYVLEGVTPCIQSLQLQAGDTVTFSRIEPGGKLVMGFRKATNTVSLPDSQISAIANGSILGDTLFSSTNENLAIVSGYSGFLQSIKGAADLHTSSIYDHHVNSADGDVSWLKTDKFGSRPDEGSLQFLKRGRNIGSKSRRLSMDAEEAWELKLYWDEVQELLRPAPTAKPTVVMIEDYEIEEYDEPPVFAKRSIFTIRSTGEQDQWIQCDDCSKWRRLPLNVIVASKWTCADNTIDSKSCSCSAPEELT

[3] = biological target: T2, IDEF1 (AK107456) full length, GAL4 AD fusion (Oryza sativa) (UniProt Q6Z1Z3); assay: one hybrid; conditions: protein in cells, protein details: GAL4 AD (pGAD424)
T2 sequence: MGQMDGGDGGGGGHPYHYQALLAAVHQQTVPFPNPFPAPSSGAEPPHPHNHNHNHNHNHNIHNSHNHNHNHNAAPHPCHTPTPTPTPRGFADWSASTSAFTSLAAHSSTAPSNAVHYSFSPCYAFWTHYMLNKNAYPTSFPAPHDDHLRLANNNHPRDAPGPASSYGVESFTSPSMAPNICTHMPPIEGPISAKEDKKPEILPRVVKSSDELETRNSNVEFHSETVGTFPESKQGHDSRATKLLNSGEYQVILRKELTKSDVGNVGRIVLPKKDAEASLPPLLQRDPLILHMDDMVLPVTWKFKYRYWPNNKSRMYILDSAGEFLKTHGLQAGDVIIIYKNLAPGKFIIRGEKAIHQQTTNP

[4] = system: AK101356 GAL4 AD fusion (Oryza sativa); assay: one hybrid; conditions: protein in cells, protein details: GAL4 AD (pGAD424)
[5] = system: HvIDEF2 (barley library one-hybrid clone) (Hordeum vulgare); assay: one hybrid; conditions: positive clone from iron-deficient barley root cDNA library screen; protein in cells
[6] = similar results with IDE2-IDE1x2 reporter, label: labeled (EMSA probe)

AAGCTTGAATTCGATATCTTGAACGGCAAGTTTCACGCTGTCACTATCAAGCATGCTTCTTGCTTGAACGGCAAGTTTCACGCTGTCACTATCAAGCATGCTTCTTGCACGCGTCTCGAGTCGCGAATCG (double strand) [IDE2-IDE1x2 (tandemly duplicated IDE1 probe)]
binding result [1]: no binding
activity on this sequence [2, 6]: not active
activity on this sequence [3, 6]: active
activity on this sequence [4, 6]: not active

AGCTTGAATTCTTGAACGGCAAGTTTCACGCTGTCACTTTGAACGGCAAGTTTCACGCTGTCACTTTGAACGGCAAGTTTCACGCTGTCACTCTAGAGTCGACCTCGAGGCAT (double strand) [IDE2x3 bait]
binding result [5]: binds

GCAGTCGAATTCGATATCAAGCATGCTTCTTGCTGCCCATCAAGCATGCTTCTTGCTGCCCATCAAGCATGCTTCTTGCTGCCCGTCGACTCTAGAGCAGTC (double strand) [IDE1x3 bait]
activity on this sequence ([2]; no LacZ induction): not active
activity on this sequence ([3]; LacZ reporter in yeast YM4271): active
activity on this sequence ([4]; no LacZ induction): not active

From US20110138496
